Results: article PMC6687201, “Atg11 tethers Atg9 vesicles to initiate selective autophagy” (PLoS Biology, 2019)
These are yes or no findings as the source states them, for the method shown. Binding seen in cells or lysates may run through a third protein. Some entries that bind do so weakly or less than the wild type. Where a sequence is shown, tags or fusion partners need not be part of it.

What was measured:
[1] = molecular target: T1, myc-tagged full length Atg11 (S. cerevisiae, UniProt Q12527 1-1178); experiment: co-IP; IP of myc-tagged Atg11 (anti-myc, Protein A magnetic beads), co-IP of HA-tagged Atg9; lysates of WT, atg13Δ, atg17Δ, atg29Δ and atg31Δ cells, log phase and starved; 25 mM Tris-HCl pH 7.2, 150 mM NaCl, 0.2% NP-40
T1 construct: Atg11, scaffolding protein of selective autophagy, yeast; also called Atg11-myc; myc-Atg11; source: yeast cells expressing myc-tagged Atg11, in lysate
T1 sequence (looked up): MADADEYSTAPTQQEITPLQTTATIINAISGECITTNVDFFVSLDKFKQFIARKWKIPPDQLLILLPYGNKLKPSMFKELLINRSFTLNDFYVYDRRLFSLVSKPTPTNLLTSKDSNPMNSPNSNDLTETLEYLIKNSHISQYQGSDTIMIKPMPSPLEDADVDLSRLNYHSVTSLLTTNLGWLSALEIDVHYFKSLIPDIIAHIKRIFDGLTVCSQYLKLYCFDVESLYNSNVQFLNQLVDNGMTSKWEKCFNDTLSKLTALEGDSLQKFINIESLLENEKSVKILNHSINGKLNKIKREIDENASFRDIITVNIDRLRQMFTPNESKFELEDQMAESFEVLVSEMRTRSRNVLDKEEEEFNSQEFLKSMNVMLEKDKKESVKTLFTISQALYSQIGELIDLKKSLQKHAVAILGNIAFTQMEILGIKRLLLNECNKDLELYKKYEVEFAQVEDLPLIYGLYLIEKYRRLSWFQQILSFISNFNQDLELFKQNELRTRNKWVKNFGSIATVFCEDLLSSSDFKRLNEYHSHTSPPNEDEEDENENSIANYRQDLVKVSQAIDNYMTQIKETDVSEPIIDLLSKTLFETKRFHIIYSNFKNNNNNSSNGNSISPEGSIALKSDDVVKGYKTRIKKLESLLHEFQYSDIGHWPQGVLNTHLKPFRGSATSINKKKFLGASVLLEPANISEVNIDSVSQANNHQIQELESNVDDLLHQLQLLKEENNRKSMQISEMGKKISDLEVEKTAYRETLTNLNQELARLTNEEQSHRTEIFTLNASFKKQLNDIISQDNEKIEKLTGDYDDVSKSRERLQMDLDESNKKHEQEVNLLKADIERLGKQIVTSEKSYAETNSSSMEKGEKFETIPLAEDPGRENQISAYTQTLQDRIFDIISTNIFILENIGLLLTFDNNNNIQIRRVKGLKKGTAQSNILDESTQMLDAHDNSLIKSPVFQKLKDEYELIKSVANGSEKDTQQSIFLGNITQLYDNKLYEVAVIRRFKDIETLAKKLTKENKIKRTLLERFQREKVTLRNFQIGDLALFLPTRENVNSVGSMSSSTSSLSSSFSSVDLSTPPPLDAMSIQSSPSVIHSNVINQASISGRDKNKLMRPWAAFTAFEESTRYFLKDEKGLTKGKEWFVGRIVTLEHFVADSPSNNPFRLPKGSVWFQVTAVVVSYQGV

[2] = molecular target: T2, GFP-tagged Atg11^ΔC (residues 1-667) (S. cerevisiae) (UniProt Q12527); experiment: co-IP; IP of GFP-tagged Atg11 or its fragments, co-IP of HA-tagged Atg9; lysates of log-phase growing and 2 h starved cells
T2 sequence: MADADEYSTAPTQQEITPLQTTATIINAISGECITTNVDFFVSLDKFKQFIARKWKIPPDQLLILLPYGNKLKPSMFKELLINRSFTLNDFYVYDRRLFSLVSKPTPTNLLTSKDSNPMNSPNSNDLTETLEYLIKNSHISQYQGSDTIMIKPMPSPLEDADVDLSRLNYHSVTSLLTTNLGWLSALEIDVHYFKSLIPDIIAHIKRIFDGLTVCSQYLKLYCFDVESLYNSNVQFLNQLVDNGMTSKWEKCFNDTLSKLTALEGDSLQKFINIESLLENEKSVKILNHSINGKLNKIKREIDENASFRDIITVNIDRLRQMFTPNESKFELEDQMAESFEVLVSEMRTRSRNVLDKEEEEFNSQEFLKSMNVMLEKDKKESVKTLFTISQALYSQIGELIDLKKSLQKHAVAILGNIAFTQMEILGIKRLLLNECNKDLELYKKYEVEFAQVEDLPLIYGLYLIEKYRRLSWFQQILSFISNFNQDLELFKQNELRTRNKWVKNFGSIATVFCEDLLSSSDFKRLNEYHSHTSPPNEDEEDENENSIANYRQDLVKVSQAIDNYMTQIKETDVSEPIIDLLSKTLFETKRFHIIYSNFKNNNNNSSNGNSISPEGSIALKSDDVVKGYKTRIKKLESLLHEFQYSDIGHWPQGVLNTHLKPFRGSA

[3] = molecular target: T3, GFP-tagged Atg11 (S. cerevisiae) (UniProt Q12527); experiment: as above
T3 sequence: T1 sequence (looked up)

[4] = molecular target: T1, myc-tagged full length Atg11; experiment: co-IP; IP of Atg11-myc and co-IP of HA-Atg9 from lysates of nonstarved cells with buffer or purified Atg17 (1, 4 μM) added

Measured: binding

B1: HA-tagged Atg9 (natural protein, S. cerevisiae, UniProt Q12142 1-997, looked up)
chain: MERDEYQLPNSHGKNTFLSRIFGLQSDEVNPSLNSQEMSNFPLPDIERGSSLLHSTNDSREDVDENDLRVPESDQGTSTEEEDEVDEEQVQAYAPQISDGLDGDHQLNSVTSKENVLETEKSNLERLVEGSTDDSVPKVGQLSSEEEEDNEFINNDGFDDDTPLFQKSKIHEFSSKKSNTIEDGKRPLFFRHILQNNRPQRDTQKLFTSSNAIHHDKDKSANNGPRNINGNQKHGTKYFGSATQPRFTGSPLNNTNRFTKLFPLRKPNLLSNISVLNNTPEDRINTLSVKERALWKWANVENLDIFLQDVYNYYLGNGFYCIILEKILNICTLLFVVFVSTYMGHCVDYSKLPTSHRVSDIIIDKCYSNSITGFTKFFLWMFYFFVILKIVQLYFDVQKLSELQNFYKYLLNISDDELQTLPWQNVIQQLMYLKDQNAMTANVVEVKAKNRIDAHDVANRIMRRENYLIALYNSDILNLSLPIPLFRTNVLTKTLEWNINLCVMGFVFNESGFIKQSILKPSQREFTREELQKRFMLAGFLNIILAPFLVTYFVLLYFFRYFNEYKTSPGSIGARQYTPIAEWKFREYNELYHIFKKRISLSTTLANKYVDQFPKEKTNLFLKFVSFICGSFVAILAFLTVFDPENFLNFEITSDRSVIFYITILGAIWSVSRNTITQEYHVFDPEETLKELYEYTHYLPKEWEGRYHKEEIKLEFCKLYNLRIVILLRELTSLMITPFVLWFSLPSSAGRIVDFFRENSEYVDGLGYVCKYAMFNMKNIDGEDTHSMDEDSLTKKIAVNGSHTLNSKRRSKFTAEDHSDKDLANNKMLQSYVYFMDDYSNSENLTGKYQLPAKKGYPNNEGDSFLNNKYSWRKQFQPGQKPELFRIGKHALGPGHNISPAIYSTRNPGKNWDNNNNGDDIKNGTNNATAKNDDNNGNNDHEYVLTESFLDSGAFPNHDVIDHNKMLNSNYNGNGILNKGGVLGLVKEYYKKSDVGR
notes: Atg9, transmembrane autophagy protein, yeast; also called HA-Atg9; source: yeast cells expressing HA-tagged Atg9, in lysate
binds: all assays above
